These are yes or no findings as the source states them, for the method shown. In cells and extracts the contact can be indirect.
Biological target: Fumarate hydratase (human (endogenous in HCT116)) (UniProt P07954)
Experiment: co-IP; HCT116 cells lysed in IP lysis buffer with phosphorylase inhibitor and PMSF; supernatant, antibody and protein A/G agarose beads overnight at 4 °C; immunoblot; also done in FH knockdown HCT116 cells (binding of Ran to SREBF1 and SREBF2 increased)

The chains behind the UniProt entries cited, without tags or fusion partners. Residues count along the entry.
UniProt P07954, residues 45-510: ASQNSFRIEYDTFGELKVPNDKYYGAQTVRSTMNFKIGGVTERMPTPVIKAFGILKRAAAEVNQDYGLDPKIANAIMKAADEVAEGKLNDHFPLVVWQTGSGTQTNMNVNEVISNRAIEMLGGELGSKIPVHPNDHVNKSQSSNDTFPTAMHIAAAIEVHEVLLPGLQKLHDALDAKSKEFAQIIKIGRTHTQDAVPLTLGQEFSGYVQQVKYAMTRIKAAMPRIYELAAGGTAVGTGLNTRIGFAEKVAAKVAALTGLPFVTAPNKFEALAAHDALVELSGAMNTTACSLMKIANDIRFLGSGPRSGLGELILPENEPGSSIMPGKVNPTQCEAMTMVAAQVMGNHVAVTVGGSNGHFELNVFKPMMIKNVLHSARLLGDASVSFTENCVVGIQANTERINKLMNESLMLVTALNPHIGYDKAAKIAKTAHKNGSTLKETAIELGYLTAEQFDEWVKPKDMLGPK
UniProt P20823: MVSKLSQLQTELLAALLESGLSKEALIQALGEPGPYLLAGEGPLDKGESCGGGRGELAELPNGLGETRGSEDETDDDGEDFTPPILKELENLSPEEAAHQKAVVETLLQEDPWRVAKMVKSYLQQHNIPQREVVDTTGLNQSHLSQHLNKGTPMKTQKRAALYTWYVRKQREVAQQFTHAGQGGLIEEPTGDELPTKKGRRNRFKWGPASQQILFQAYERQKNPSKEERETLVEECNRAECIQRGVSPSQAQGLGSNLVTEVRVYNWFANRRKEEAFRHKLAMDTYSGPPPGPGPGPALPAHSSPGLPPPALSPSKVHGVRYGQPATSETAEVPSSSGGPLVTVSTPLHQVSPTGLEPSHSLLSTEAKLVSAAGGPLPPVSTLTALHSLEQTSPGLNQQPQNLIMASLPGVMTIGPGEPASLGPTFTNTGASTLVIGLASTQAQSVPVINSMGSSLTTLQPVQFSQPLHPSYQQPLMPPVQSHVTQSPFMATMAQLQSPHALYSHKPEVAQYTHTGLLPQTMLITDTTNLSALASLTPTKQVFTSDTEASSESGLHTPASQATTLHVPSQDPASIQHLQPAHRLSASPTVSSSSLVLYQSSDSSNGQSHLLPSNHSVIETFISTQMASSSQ

- binding: no binding
Substance: HNF1A (from UniProt P20823 1-631)
